At least one structure is not confirmed: it was looked up by name or label, or the drawing left a doubt.
System: test subject suffering from benign prostatic hyperplasia
Assay: Ability to urinate in male subject with benign prostatic hyperplasia on daily tadalafil
Format: in vivo, human
Details: Example 10: person with benign prostatic hyperplasia; daily dose of 5 mg tadalafil

Structure (SMILES): CN1CC(=O)N2[C@H](c3ccc4c(c3)OCO4)c3[nH]c4ccccc4c3C[C@@H]2C1=O [tadalafil]
- ability to urinate: greatly improved their ability to urinate
